Assay results reported in the supplement of paper PMC3334620.
Over roughly 33,000 sequences, “E-score (-0.5 to 0.5)” has its median near -8e-05; the highest 2% begin near 0.23. The list shows a part of the results.

Target: T1, Nrg2 (UniProt P38082)
T1 sequence: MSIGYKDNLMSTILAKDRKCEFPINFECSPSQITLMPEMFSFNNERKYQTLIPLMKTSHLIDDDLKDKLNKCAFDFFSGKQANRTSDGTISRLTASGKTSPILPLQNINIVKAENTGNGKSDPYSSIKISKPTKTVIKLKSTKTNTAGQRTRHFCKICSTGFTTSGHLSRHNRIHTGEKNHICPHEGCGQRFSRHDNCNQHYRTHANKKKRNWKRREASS
Test: PBM E-score (8-mer binding enrichment) (E-score (-0.5 to 0.5)); higher = stronger / more preferred TF binding
Conditions: protein concentration: 100 nM; construct: GST-full length
Description: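 Universal 'all 10-mer' protein binding microarrays (Agilent AMADID 015681) probed with GST-tagged S. cerevisiae TFs (full-length or DBD) made by in vitro transcription/translation (PURExpress), about 100-200 nM. Bound TF was detected with fluorescent anti-GST. Each ungapped 8-mer (which stands for itself and its reverse complement) is scored by the PBM enrichment score (E-score), a modified Wilcoxon-Mann-Whitney statistic from -0.5 to +0.5, computed with the Universal PBM Analysis Suite. Scale: above 0.35 generally sequence-specific binding.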

Row | Sequence | PBM E-score
1 | ATGCTACA | 0.0183
2 | CCTGCACG | -0.00448
3 | AAGGTAGC | -0.0182
4 | CGTAAGAA | 0.0261
5 | CTATTGAC | -0.0292
6 | AGAGCTGC | -0.143
7 | GATAATCC | 0.0429
8 | AGTATAGC | -0.0407
9 | AAGTCCCT | 0.101
10 | GGAGAAGA | -0.12
11 | TCCCCTCA | 0.235
12 | CTTTGCTA | -0.0423
13 | CGCCGTAA | 0.0886
14 | GCGTTTAC | -0.196
15 | CTGCTCGA | 0.073
16 | AAACTCGA | 0.101
17 | AGGTCCAG | 0.0696
18 | CAGAAGAC | 0.0683
19 | CGCGTGCC | -6e-05
20 | ACCATATG | -0.0149
21 | TAGCCCCA | 0.155
22 | ACACATGG | -0.0177
23 | CTAAGGAA | 0.0506
24 | GTGAGGCA | -0.108
25 | CCCCCTCC | -0.328

In a second layout: entries from further up.

| Row | Sequence | PBM E-score |
| --- | --- | --- |
| 7 | GATAATCC | 0.0429 |
| 8 | AGTATAGC | -0.0407 |
| 9 | AAGTCCCT | 0.101 |
| 10 | GGAGAAGA | -0.12 |
| 11 | TCCCCTCA | 0.235 |
| 12 | CTTTGCTA | -0.0423 |
| 13 | CGCCGTAA | 0.0886 |

Continuation:

Row | Sequence | PBM E-score
26 | ATGTGCCC | -0.0305
27 | GAGAACGC | -0.0893
28 | CCTGAGTC | 0.0789
29 | ATCACCGG | -0.0938
30 | ATTCCGTA | -0.0204
31 | ATTTGGTG | 0.0939
32 | ACCATGTA | 0.0787
33 | CCGCATAG | 0.0322
34 | GCTTAAAC | -0.129
35 | CTCGCCAA | 0.104
36 | AGGAGCAG | -0.233
37 | CATTACTC | -0.0142
38 | AAACCATT | -0.0576
39 | GTAATGAA | 0.0518
40 | TCGAATAA | 0.0617
41 | CGCCCAAG | -0.146
42 | CTCGGTCC | -0.0232
43 | CCAGACAC | -0.16
44 | CTAAACTA | 0.0285
45 | CATCGCCC | -0.127
46 | CGTGATAG | -0.0644
47 | CATTACCC | -0.115
48 | CGGTTACA | 0.0955
49 | ACCGAGAT | 0.114
50 | TGATTAAA | 0.107

Row | Sequence | PBM E-score
51 | ACAGGCTA | -0.14
52 | ATTTTAAG | 0.0304
53 | CATTTTCG | 0.152
54 | AGGTAACG | -0.0195
55 | AAGGGCGT | -0.153
56 | CACTCTCG | 0.135
57 | GGATAGAA | 0.146
58 | CCTGCGAG | 0.0411
59 | GCTAGACA | -0.0933
60 | GCCCTGCA | 0.044
61 | CGGCTGTA | -0.165
62 | AAGATACC | 0.206
63 | AACCGAAG | 0.0159
64 | AGACGTAA | 0.021
65 | CTCCTGAA | 0.0373
66 | GGCATGGA | -0.0345
67 | ATCCATTG | 0.128
68 | CTGAATGC | -0.139
69 | AGCGCCAG | -0.112
70 | CCTGTCAA | 0.0178
71 | ACTCAGGC | 0.00622
72 | GTTATGTA | -0.0457
73 | AGCACCCT | -0.0284
74 | ACAGGGCG | 0.223
75 | CACACTCC | -0.11

Row | Sequence | PBM E-score
76 | TCCAGGGA | 0.242
77 | AAGGGCGA | -0.0222
78 | AGGAGCTG | -0.231
79 | ATCCCGTG | 0.143
80 | AACATATC | 0.186
81 | GCTCGGGA | -0.189
82 | CGGGAGAC | -0.141
83 | GATACGTA | -0.0119
84 | ATCTTTCC | 0.0479
85 | ATGTGTGA | -0.0527
86 | AAGTAATC | 0.126
87 | ATTCTCGC | -0.163
88 | CAAGGTCA | -0.0865
89 | AGTGAAAG | -0.0491
90 | CCATGCCA | 0.0148
91 | ATGAACAT | 0.181
92 | CAAACTAG | -0.0559
93 | AGGTGCCC | -0.267
94 | CAGGATAG | 0.103
95 | AGAAAGAG | -0.0521
96 | ATCTTGGC | -0.122
97 | GAACAGTC | -0.161
98 | CCCGTTTC | 0.0498
99 | CACTCCTA | -0.31
100 | GGGTACTA | 0.142

Row | Sequence | PBM E-score
101 | AACGTTAG | -0.0605
102 | CGTGGCGA | -0.0347
103 | ATAAAAAA | 0.0337
104 | TCCGCACA | 0.0539
105 | CGGTTCAC | -0.195
106 | CTAAATTC | 0.144
107 | AAGCGGAT | 0.0275
108 | AAGACGTA | -0.0582
109 | GACTAAGA | -0.146
110 | ATGAGGTA | 0.0728
111 | CTTTTCTA | -0.155
112 | AGGTGGAT | -0.0485
113 | ACGATGAT | -0.0978
114 | ATCAGTTA | -0.0453
115 | TAGACTGA | -0.0386
116 | CTTCTAAA | -0.0914
117 | GTTCGGCA | -0.0204
118 | CGATCCAG | 0.0385
119 | ACTCACCA | 0.0937
120 | ACGCTGAG | 0.0221
121 | AAGACCCC | 0.0454
122 | AAAATACC | 0.00056
123 | CGAATCAC | 0.117
124 | TAATGGAA | 0.157
125 | AAAAGTAT | 0.0649

Row | Sequence | PBM E-score
126 | AAGGAACC | 0.109
127 | ATTTGAGA | 0.168
128 | ACGGCGTA | -0.107
129 | GTGTTCTA | 0.207
130 | AGCAAGCT | -0.229
131 | AGAAGTGC | -0.102
132 | AATCAACC | 0.0205
133 | AACCTCGA | 0.0566
134 | CTAAGAGC | -0.185
135 | AAGCCGAC | -0.0607
136 | AGGCCCAC | -0.222
137 | AACTTGGA | 0.0634
138 | ACTTCCGA | 0.103
139 | CCACCTCC | -0.221
140 | ACCGTCAA | -0.0323
141 | GAATACGC | 0.0823
142 | CGTTCAGC | 0.00064
143 | AACCGCGA | 0.256
144 | AGGGCGAC | -0.0529
145 | GGGATGAC | -0.00204
146 | CCAGCTGG | -0.0144
147 | TCACCGCA | 0.0871
148 | GAACATAA | 0.201
149 | CGTCATAG | -0.0955
150 | CGGCCTGC | -0.225

Row | Sequence | PBM E-score
151 | TCGGGTAA | -0.00616
152 | GGCGGCAA | -0.0691
153 | ATGGCCGA | 0.0712
154 | GCCTAAAC | -0.114
155 | GCGGAGAC | 0.104
156 | AGCGCGTG | 0.00458
157 | AGTAGTGC | 0.104
158 | GTGTCTGA | 0.058
159 | GCAACATA | 0.0428
160 | AGTGGCGA | 0.151
161 | CGGAAGCC | -0.0402
162 | GTGTCCTA | -0.0476
163 | GCGAAGAA | 0.0522
164 | ATTCCACG | 0.0249
165 | TGACACCA | -0.0771
166 | AAAGACAT | -0.0374
167 | TACAAATA | 0.0774
168 | ATACGTCG | 0.00829
169 | CGACCATA | -0.0241
170 | AGCCCGCT | -0.338
171 | AGACTGAG | -0.0772
172 | GGTATTAA | 0.0523
